# According to PubChem BioAssay AID1671190 (National Center for Advancing Translational Sciences (NCATS), 2021):
# Sequences of proteins named here, by UniProt entry; tags and fusion partners are left off.
# UniProt P18054, whole entry, looked up: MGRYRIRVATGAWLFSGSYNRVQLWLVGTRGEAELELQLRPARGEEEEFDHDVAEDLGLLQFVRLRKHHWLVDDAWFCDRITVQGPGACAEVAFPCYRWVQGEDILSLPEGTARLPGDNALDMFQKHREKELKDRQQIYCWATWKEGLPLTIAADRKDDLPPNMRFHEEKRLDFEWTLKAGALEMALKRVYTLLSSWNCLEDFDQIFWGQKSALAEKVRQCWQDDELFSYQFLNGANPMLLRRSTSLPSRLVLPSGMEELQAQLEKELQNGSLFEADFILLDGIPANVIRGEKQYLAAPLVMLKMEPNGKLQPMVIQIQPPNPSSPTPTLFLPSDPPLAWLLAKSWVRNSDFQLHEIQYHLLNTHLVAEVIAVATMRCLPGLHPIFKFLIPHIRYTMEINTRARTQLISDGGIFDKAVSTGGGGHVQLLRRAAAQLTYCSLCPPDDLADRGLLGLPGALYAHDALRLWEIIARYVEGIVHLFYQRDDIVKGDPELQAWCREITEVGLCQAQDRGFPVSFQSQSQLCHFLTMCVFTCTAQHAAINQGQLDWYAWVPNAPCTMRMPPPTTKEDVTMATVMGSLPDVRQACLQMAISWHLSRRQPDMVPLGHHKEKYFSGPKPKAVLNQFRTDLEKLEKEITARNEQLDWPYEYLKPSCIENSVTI
# Where “and” joins values, the source holds several entries; their conditions need not be identical. Equal values may be shown once. Screen size: about 580,000 compounds; about 6,100 (1.1%) were called active. Inconclusive means that the source gave no clear call. Such entries were picked first, then a sample of the others. Calls come from the whole dose curve; as a rule, active = well fitted inhibition curve with a large enough effect; inconclusive = small, poorly fitted or top-dose-only effect, or another doubt; inactive = no such curve, though single readings can be large or run the other way. Where the call is inconclusive, the potency comes from a doubtful curve fit.
# Biological target: Polyunsaturated fatty acid lipoxygenase ALOX12 (Homo sapiens) (UniProt P18054)
# Assay: Primary qHTS assay for inhibitors of human arachidonate 12S-lipoxygenase (ALOX12): Round 2
# Details: purified 12hLO, xylenol orange hydroperoxide absorbance; activity change, negative = inhibition: at 108 µM (top of the series) unless noted
# Method in brief: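 Hydroperoxide product was detected by ferrous iron/xylenol orange as the 573 to 405 nm absorbance ratio. Arachidonic acid at 40 uM (final) was turned over for 30 min at room temperature by 150 nM human 12hLO, pH 7.0 Hepes buffer, after 15 min compound preincubation.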
# % is set by controls: 0 for no effect and ±100 for the full control effect; potency is the fitted concentration of half-maximal effect.
Compound,Potency,"activity change, negative = inhibition"
COc1ccc(NC(=S)NC(=O)/C=C/c2ccccc2)cc1,"inconclusive: 1.26 µM [inhibitor, full curve]",
Cc1ccc(S(=O)(=O)CCC(=O)N2CCN(c3nc4c(C)c(C)ccc4s3)CC2)cc1,"inconclusive: 56.2 µM [inhibitor, partial curve, poor fit] and inconclusive: 50.1 µM [inhibitor, partial curve, poor fit]",
Cc1cccc(C(=O)Oc2ccccc2C(=O)N2CCOCC2)c1,,inactive: 0%
CS(=O)(=O)c1ccc(-c2cn3cc(C(=O)O)ccc3n2)cc1,"inconclusive: 56.2 µM [inhibitor, partial curve, poor fit]",
O=C(CCC1CCN(S(=O)(=O)c2ccccc2)CC1)NCCc1ccccc1,,inactive: 17.6%
CC(Cc1n[nH]c(=S)o1)c1ccccc1 (stereo unspecified),"inconclusive: 44.7 µM [inhibitor, partial curve, poor fit]",
CC(=O)c1ccc(N2CCN(CC3CCCCC3)CC2)cc1,"inconclusive: 50.1 µM [inhibitor, partial curve, poor fit]",
CCCCCN(C)CCC(O)(P(=O)(O)O)P(=O)(O)O,,inactive: -12.5% [at 57.4 µM]
Cc1ccc(SCC(=O)c2ccc[nH]2)cc1,"inconclusive: 100 µM [inhibitor, single point]",
O=C(c1ccccc1)c1cc2ccccc2oc1=O,,inactive: 2.39%
Cc1ccc(OCC(=O)Nc2nonc2-c2ccc(Br)cc2)cc1,"inconclusive: 56.2 µM [inhibitor, partial curve, poor fit]",
COc1ccc(N2CCN(C(c3ccc(F)cc3)c3sc4nc(-c5ccco5)nn4c3O)CC2)cc1 (stereo unspecified),,inactive: -26.9%
COCCN1C(=O)C(=O)/C(=C(/O)c2cccc(OC)c2)C1c1ccncc1 (stereo unspecified),"inconclusive: 35.5 µM [inhibitor, partial curve, poor fit]",
CCc1nc2c(OCc3ccc(F)cc3)cccn2c1N(C)C(=O)COc1ccccc1,,inactive: 11.6%
CC(=O)C[C@@H](O)CC(=O)[C@H]1OC(=O)CCCCCc2ccccc21,"inconclusive: 70.8 µM [inhibitor, single point]",
C=CCNc1nc(-c2ccc(CNC(=O)C(C)(C)C)s2)cs1,,inactive: -27%
CN(Cc1ccc(-c2ccc(Cl)cc2)o1)C(=O)CNC(=O)c1ccc(Cl)cc1Cl,,inactive: -30%
CCC(C)NC(=O)c1cnn(-c2cccc(F)c2)c1-n1cccc1 (stereo unspecified),"inconclusive: 79.4 µM [inhibitor, partial curve, poor fit]",
CC(C)c1ccc2oc(-c3cccc(NC(=O)c4cccnc4)c3)nc2c1,"inconclusive: 14.1 µM [inhibitor, full curve, poor fit]",
O=C(c1cccs1)N1CCN(Cc2ccncc2)CC1,,inactive: 70.9%
COc1ccc(-n2c(=S)[nH]c3cc(C(=O)NCCCN4CCCC4=O)ccc3c2=O)c(OC)c1,"inconclusive: 35.5 µM [inhibitor, partial curve, poor fit]",
CCc1cc(=O)n(CC(=O)Nc2ccc(C(=O)OC)cc2)c(-c2ccccc2)n1,,inactive: -23.8%

# Arranged by length of the SMILES (high to low): part of the list above.
Compound,Potency,"activity change, negative = inhibition"
COc1ccc(-n2c(=S)[nH]c3cc(C(=O)NCCCN4CCCC4=O)ccc3c2=O)c(OC)c1,"inconclusive: 35.5 µM [inhibitor, partial curve, poor fit]",
COc1ccc(N2CCN(C(c3ccc(F)cc3)c3sc4nc(-c5ccco5)nn4c3O)CC2)cc1 (stereo unspecified),,inactive: -26.9%
O=C(CCC1CCN(S(=O)(=O)c2ccccc2)CC1)NCCc1ccccc1,,inactive: 17.6%

# In another format: entries from further up
Compound	Potency	activity change, negative = inhibition
O=C(CCC1CCN(S(=O)(=O)c2ccccc2)CC1)NCCc1ccccc1		inactive: 17.6%
Cc1ccc(SCC(=O)c2ccc[nH]2)cc1	inconclusive: 100 µM [inhibitor, single point]	

# Further structures follow.

Compound,Potency,"activity change, negative = inhibition"
COc1ccccc1Cc1c(-c2ccc(C)cc2)nc2ccc(C)cn12,"inconclusive: 22.4 µM [inhibitor, partial curve, poor fit]",
Nc1nc(Nc2ccc(Br)cc2)sc1C(=O)c1cccc(Br)c1,"inconclusive: 17.8 µM [inhibitor, full curve]",
NN/C(=C\[N+](=O)[O-])Nc1ccc(Cl)cc1,active: 35.5 µM,
CC(=O)N1CC2(CCN(Cc3nnc(-c4ccco4)o3)CC2)CC1C(=O)O (stereo unspecified),,inactive: 99.1%
CCOc1cc2ccccc2cc1C(=O)Nc1nnc(C2CC2)s1,,inactive: 11.7%
COc1ccc(C(C)=O)cc1CSc1nnc(Nc2c(C)cccc2C)s1,,inactive: -13.4%
Cc1noc(-c2cn(C3CCN(C(=O)c4cc(F)ccc4Cl)C3)nn2)n1 (stereo unspecified),,inactive: 13.1%
N#CCCn1cc(/C=N/NC(N)=S)c(-c2ccc(Br)cc2)n1,"inconclusive: 39.8 µM [inhibitor, partial curve, poor fit]",
COc1ccc(CNc2nnnn2C)cc1,"inconclusive: 35.5 µM [inhibitor, partial curve, poor fit]",
C=C(C)[C@@H]1CC[C@]2(C(=O)O)CC[C@]3(C)[C@H](CC[C@@H]4[C@@]5(C)CC[C@H](O)C(C)(C)[C@@H]5CC[C@]43C)[C@@H]12,"inconclusive: 24.3 µM [inhibitor, single point]",
CC(C)C(NC(=O)c1ccccc1F)C(=O)OCC(=O)c1ccc(F)cc1 (stereo unspecified),"inconclusive: 100 µM [inhibitor, partial curve, poor fit]",
CCC(=C(CC)c1ccc(O)cc1)c1ccc(O)cc1,"inconclusive: 24.3 µM [inhibitor, partial curve, poor fit]",
COC(=O)N/N=C/c1cn(Cc2ccccc2F)c2ccccc12,,inactive: 91.9%
CCc1ccccc1-n1nnnc1-c1cnccc1C(F)(F)F,"inconclusive: 126 µM [inhibitor, single point]",
Cn1c(=O)n(C)c2cc(NC(=O)COc3ccc(Cl)cc3)ccc21,,inactive: 0.523%
Cc1ccc(NC(=O)CN2C(=O)N/C(=C/c3cc(C)n(-c4ccc(C(=O)O)cc4)c3C)C2=O)cc1,"inconclusive: 44.7 µM [inhibitor, partial curve]",
COc1ccc(S(=O)(=O)NCCN2CCNC2=O)cc1OC,"inconclusive: 112 µM [inhibitor, single point]",
c1csc(C2C3=C(Nc4ncnn42)c2ccccc2OC3)c1 (stereo unspecified),,inactive: -22%
Fc1ccc(OC2CN(Cc3cccc4ccccc34)C2)c(F)c1,,inactive: -0.116% [at 6.33 µM]
CC(C)CNC(=O)C(C)Sc1nc(-c2ccco2)nc2ccccc12 (stereo unspecified),"inconclusive: 35.5 µM [inhibitor, partial curve, poor fit]",
COc1cc(OC)cc(C2=Cc3ccccc3C(CC(C)=O)N2c2ccc(-c3cccs3)cc2)c1 (stereo unspecified),"inconclusive: 56.2 µM [inhibitor, partial curve, poor fit]",
CNC(=O)CCC[C@H]1NC[C@@H]2CC1CN(Cc1ccccc1)C2,active: 8.91 µM,

Compound,Potency,"activity change, negative = inhibition"
COCCNC(=O)C[C@@H]1C[C@@H](C(C)C)[C@H](CNS(=O)(=O)c2ccc(OC)cc2)C=C1C,,inactive: -0.0161%
Cc1ccc(CCC(=O)NCc2ccccn2)cc1,,inactive: 13.5%
CCNc1nc(-c2cc(C)n(Cc3ccco3)c2C)cs1,"inconclusive: 56.2 µM [inhibitor, partial curve, poor fit]",
CCCC/C=C1/[C@H](c2ccc(Cl)cc2)N(Cc2ccc3c(c2)OCO3)C2=N[C@H](c3ccccc3)CC(=O)N21,"inconclusive: 4.47 µM [inhibitor, full curve, poor fit]",
Fc1ccc(-c2nnc(SCc3ncc(-c4ccccc4)o3)o2)cc1,,inactive: -8.41%
O=C(NC1CCN(c2cc(-c3ccccc3)[nH]n2)CC1)c1cc2ccccc2[nH]1,"inconclusive: 79.4 µM [inhibitor, single point]",
N#Cc1c(N2CCN(C(=O)C(=O)NCCc3ccccc3)CC2)nc(-c2ccco2)c2c1CCCC2,"inconclusive: 35.5 µM [inhibitor, partial curve, poor fit]",
CC1(C(=O)NS(=O)(=O)c2ccccc2Cl)CCN1C(=O)Cc1ccccc1 (stereo unspecified),"inconclusive: 79.4 µM [inhibitor, partial curve, poor fit]",
O=C(O)[C@H]1CN(CCCP(=O)(O)O)CCN1,"inconclusive: 35.5 µM [inhibitor, partial curve, poor fit]",
CCCOC(=O)C1=C(C)N(C)C(=O)NC1c1cc2c(cc1[N+](=O)[O-])OCO2 (stereo unspecified),"inconclusive: 141 µM [inhibitor, partial curve, poor fit]",
Cc1ccc(CNC(=O)Cn2c3ncccc3c(=O)n2-c2ccc(C)cc2)cc1,"inconclusive: 89.1 µM [inhibitor, single point]",
COc1ccc2[nH]c3c(c2c1)CCNC3=O,"inconclusive: 79.4 µM [inhibitor, partial curve, poor fit] and inconclusive: 17.8 µM [inhibitor, partial curve, poor fit]",
CCC(=O)c1ccc(OCC(=O)NCc2ccccc2CN2CCCC2)cc1,"inconclusive: 50.1 µM [inhibitor, partial curve, poor fit]",
CCc1ccc(OCC2NCCc3cc(OC)c(OC)cc32)cc1 (stereo unspecified),"inconclusive: 56.2 µM [inhibitor, partial curve, poor fit]",
CCCCN(CCCC)c1cccc(-c2cccc(N(CCCC)CCCC)c2)c1,"inconclusive: 28.2 µM [inhibitor, partial curve, poor fit]",
O=C(CCC1CCCC1)Nc1ccc(C(=O)NCc2cccnc2)cc1,,inactive: -17.7%
C=CCOc1ccc(CN(C)CC(O)COc2ccc(CCC(C)=O)cc2)cc1 (stereo unspecified),,inactive: -26%
CC(C)c1cc(-c2nc(-c3cccc(Cl)c3)no2)n[nH]1,"inconclusive: 100 µM [inhibitor, partial curve, poor fit]",
CC(=O)N1CCCN(c2ncnc3c2CN(C2CCCNC2)C(=O)CN3C)CC1 (stereo unspecified),"inconclusive: 3.98 µM [inhibitor, full curve, poor fit]",
COc1ccc(-c2cccc(CCOc3cnc4c(ccn4CC(=O)O)c3)c2)c(F)c1,"inconclusive: 50.1 µM [inhibitor, full curve]",
O=c1ccc(N2CCC(NS(=O)(=O)c3ccccc3Cl)CC2)nn1CC1CC1,"inconclusive: 56.2 µM [inhibitor, partial curve, poor fit]",
CC1CCN(c2oc(COc3cccc(Cl)c3)nc2C#N)CC1,"inconclusive: 22.4 µM [inhibitor, partial curve, poor fit]",
